Data on one molecule can be found in US7303921B2, “Method to assay coenzyme Q10 in blood plasma or blood serum” (priority 2002, dated 2007).

Where “and” joins values, the source holds several entries; their conditions need not be identical. Equal entries are not always repeated. Bounds are passed on as bounds.

This data set is described as follows: Recovery, accuracy and precision of the CoQ10 plasma assay. Also noted: species or system human. On the procedure:
Description of the Analysis. 200 μl of a blood plasma sample were supplemented with 50 μl of a 1,4 benzoquinone solution (2 mg/ml) in a test tube and vortexed for 10 seconds. After 10 minutes, 1 ml of n-propanol was added. The test tube was vortexed for 10 seconds and centrifuged at 10,000 rpm for 2 minutes in order to spin down the protein precipitate. 200 μl of the supernatant were injected into the HPLC. […] Mobile phase was constituted by ethanol-methanol (65%-35%) and the flux was 1 ml/min. UV detection was performed at 275 nm.
200 μl of different concentrations of pure oxidized CoQ10 were injected as standards. Working solutions of the standards were in propanol:water (5:1), i.e. the same propanol:water ratio as for the samples. Peak area analysis was performed by a Beckman Gold Data System (DOS version).
Recovery, Accuracy and Precision. Recovery of CoQ10 was based on a comparison between the peaks obtained by spiking samples with increasing concentrations of oxidized CoQ10 and the corresponding peaks of the standard. Recovery was documented at 3 concentrations (1.16, 2.32, and 3.48 μM) with triplicate determinations for each concentration. Intra-assay accuracy and precision were determined using 4 samples, the value of which had been certified by a reference ECD method; each level was assayed 5 times for the intra-assay accuracy and precision test. Inter-assay accuracy and precision were determined over a two-month period using a quality control sample (n=21).

For `COC1=C(OC)C(=O)C(C/C=C(\C)CC/C=C(\C)CC/C=C(\C)CC/C=C(\C)CC/C=C(\C)CC/C=C(\C)CC/C=C(\C)CC/C=C(\C)CC/C=C(\C)CCC=C(C)C)=C(C)C1=O` [CoQ10], the limit of quantitation (UV-HPLC method) was 0.037 µM. Further, the “precision at limit of quantitation” value (at 0.037 μM) was 10.52%. The “Mean of 21 measurements” value (day to day test over a two month period) came to 0.80 µM. Further, the “% deviation from nominal value” (day to day test, n=21) is 0.7%. Also, the C.V. % was 2.16% (day to day test, n=21); 1.6% and 5.3% and 5.7% and 10.5% (within run precision, five analyses per sample). The molecule also had a Measured (plasma sample after spiking with CoQ10 1.16 μM) of 1.40 pM; a Measured (plasma sample after spiking with CoQ10 2.32 μM) of 2.56 pM; a Measured (plasma sample after spiking with CoQ10 3.48 μM) of 3.72 pM; a Measured (plasma sample, basal concentration) of 0.29 pM. Besides, the “initial concentration of sample” value (plasma sample before spiking) is 0.29 µM. The Deviation % (within run accuracy, deviation from nominal value) was 1.9% and −3.4% and −4.7% and 2.6%. Besides, for the setting “within run, all four samples”, the “Deviation from nominal values” is ≤ 4.7%.
